Assay results published in the supplement of paper PMC11438910.
This is one part of the list. The signal is at background level for most entries.

Tests used:
Assay in all cases: fluorescence intensity of antibody binding to polysaccharide-coupled beads; higher = stronger binding
[1] = biological target: pneumococcal polysaccharide Pn13
[2] = biological target: pneumococcal polysaccharide Pn14
[3] = biological target: pneumococcal polysaccharide Pn15A
[4] = biological target: pneumococcal polysaccharide Pn15B
[5] = biological target: pneumococcal polysaccharide Pn15C
[6] = biological target: pneumococcal polysaccharide Pn15F
[7] = biological target: pneumococcal polysaccharide Pn16A
[8] = biological target: pneumococcal polysaccharide Pn16F
[9] = biological target: pneumococcal polysaccharide Pn17A
[10] = biological target: pneumococcal polysaccharide Pn17F
[11] = biological target: pneumococcal polysaccharide Pn18A
[12] = biological target: pneumococcal polysaccharide Pn18B
[13] = biological target: pneumococcal polysaccharide Pn18C
[14] = biological target: pneumococcal polysaccharide Pn18F
[15] = biological target: pneumococcal polysaccharide Pn19A
[16] = biological target: pneumococcal polysaccharide Pn19B
[17] = biological target: pneumococcal polysaccharide Pn19C
[18] = biological target: pneumococcal polysaccharide Pn19F
[19] = biological target: pneumococcal polysaccharide Pn2
[20] = biological target: pneumococcal polysaccharide Pn20A
[21] = biological target: pneumococcal polysaccharide Pn20B
[22] = biological target: pneumococcal polysaccharide Pn21
[23] = biological target: pneumococcal polysaccharide Pn22A
[24] = antibody concentration 0.1 ng/mL
[25] = antibody concentration 0.534724 ng/mL
[26] = antibody concentration 2.8593 ng/mL
[27] = antibody concentration 15.2894 ng/mL
[28] = antibody concentration 81.7561 ng/mL
[29] = antibody concentration 437.17 ng/mL
[30] = antibody concentration 2337.65 ng/mL
[31] = antibody concentration 12500 ng/mL

B1: 4-173.3 (protein)
chain 1: QLQLQESGPGLVKPSETLSLTCAVSGGSINNNYWSWIRQPPGKGLEWIGRIFGSGGSTDYNPSLKSRVTISTDTSKTQFSLNLNSVTAADTAVYFCARGSYQVDYWGQGVLVTVSS
chain 2: QAALTQPPSMSGSPGQSVTISCTGTSSDIGGWNRVSWYQQYPGKAPKLMIYEVSKRPSGVSDRFSGSKSGNTASLTISGLQAEDEADYYCSSYVHINNALFGGGTRLTVL
B1 showed a fluorescence intensity [1, 24] of 17.5 MFI, a fluorescence intensity [1, 25] of 19 MFI and a fluorescence intensity [1, 26] of 19 MFI. It also gave a fluorescence intensity [1, 27] of 17.8 MFI, a fluorescence intensity [1, 28] of 18.5 MFI and a fluorescence intensity [1, 29] of 18.5 MFI. The fluorescence intensity [1, 30] was 18.8 MFI, the fluorescence intensity [1, 31] was 27.5 MFI and the fluorescence intensity [2, 24] was 13.8 MFI. For the same binder, the fluorescence intensity [2, 25] was 14 MFI, the fluorescence intensity [2, 26] was 14 MFI and the fluorescence intensity [2, 27] was 14.8 MFI. It also gave a fluorescence intensity [2, 28] of 15 MFI, a fluorescence intensity [2, 29] of 15 MFI and a fluorescence intensity [2, 30] of 22 MFI. The fluorescence intensity [2, 31] was 68 MFI, the fluorescence intensity [3, 24] was 11 MFI and the fluorescence intensity [3, 25] was 12.5 MFI. It also gave a fluorescence intensity [3, 26] of 12.5 MFI, a fluorescence intensity [3, 27] of 12.5 MFI and a fluorescence intensity [3, 28] of 12.2 MFI. It also gave a fluorescence intensity [3, 29] of 12 MFI, a fluorescence intensity [3, 30] of 14 MFI and a fluorescence intensity [3, 31] of 15.5 MFI. The fluorescence intensity [4, 24] was 17 MFI, the fluorescence intensity [4, 25] was 17 MFI and the fluorescence intensity [4, 26] was 16.5 MFI. It also gave a fluorescence intensity [4, 27] of 17.5 MFI, a fluorescence intensity [4, 28] of 18.5 MFI and a fluorescence intensity [4, 29] of 19 MFI. For the same binder, the fluorescence intensity [4, 30] was 23 MFI, the fluorescence intensity [4, 31] was 30 MFI and the fluorescence intensity [5, 24] was 16.5 MFI. The fluorescence intensity [5, 25] was 19.2 MFI, the fluorescence intensity [5, 26] was 14.2 MFI and the fluorescence intensity [5, 27] was 14.5 MFI. For the same binder, the fluorescence intensity [5, 28] was 16.8 MFI, the fluorescence intensity [5, 29] was 14.5 MFI and the fluorescence intensity [5, 30] was 17.5 MFI. The fluorescence intensity [5, 31] was 22.2 MFI, the fluorescence intensity [6, 24] was 16 MFI and the fluorescence intensity [6, 25] was 15.5 MFI. It also gave a fluorescence intensity [6, 26] of 16.5 MFI, a fluorescence intensity [6, 27] of 15.5 MFI and a fluorescence intensity [6, 28] of 18 MFI. It also gave a fluorescence intensity [6, 29] of 16.2 MFI, a fluorescence intensity [6, 30] of 18 MFI and a fluorescence intensity [6, 31] of 24.2 MFI. It also gave a fluorescence intensity [7, 24] of 13.2 MFI, a fluorescence intensity [7, 25] of 13.5 MFI and a fluorescence intensity [7, 26] of 14 MFI. The fluorescence intensity [7, 27] was 12 MFI, the fluorescence intensity [7, 28] was 12 MFI and the fluorescence intensity [7, 29] was 13 MFI. The fluorescence intensity [7, 30] was 14.5 MFI, the fluorescence intensity [7, 31] was 22.5 MFI and the fluorescence intensity [8, 24] was 23.2 MFI. The fluorescence intensity [8, 25] was 24 MFI, the fluorescence intensity [8, 26] was 21.5 MFI and the fluorescence intensity [8, 27] was 22 MFI. The fluorescence intensity [8, 28] was 23.2 MFI, the fluorescence intensity [8, 29] was 23.8 MFI and the fluorescence intensity [8, 30] was 27 MFI. It also gave a fluorescence intensity [8, 31] of 35 MFI, a fluorescence intensity [9, 24] of 20.2 MFI and a fluorescence intensity [9, 25] of 18.5 MFI. For the same binder, the fluorescence intensity [9, 26] was 19 MFI, the fluorescence intensity [9, 27] was 20.5 MFI and the fluorescence intensity [9, 28] was 19.5 MFI. For the same binder, the fluorescence intensity [9, 29] was 19.8 MFI, the fluorescence intensity [9, 30] was 20 MFI and the fluorescence intensity [9, 31] was 25 MFI. It also gave a fluorescence intensity [10, 24] of 25.2 MFI, a fluorescence intensity [10, 25] of 25 MFI and a fluorescence intensity [10, 26] of 26.8 MFI. For the same binder, the fluorescence intensity [10, 27] was 23.5 MFI, the fluorescence intensity [10, 28] was 23.2 MFI and the fluorescence intensity [10, 29] was 25 MFI. For the same binder, the fluorescence intensity [10, 30] was 25.8 MFI, the fluorescence intensity [10, 31] was 30.5 MFI and the fluorescence intensity [11, 24] was 21.8 MFI. The fluorescence intensity [11, 25] was 23.5 MFI, the fluorescence intensity [11, 26] was 22 MFI and the fluorescence intensity [11, 27] was 24 MFI. For the same binder, the fluorescence intensity [11, 28] was 21.5 MFI, the fluorescence intensity [11, 29] was 24.5 MFI and the fluorescence intensity [11, 30] was 24.2 MFI. The fluorescence intensity [11, 31] was 29 MFI, the fluorescence intensity [12, 24] was 30.8 MFI and the fluorescence intensity [12, 25] was 29 MFI. It also gave a fluorescence intensity [12, 26] of 30 MFI, a fluorescence intensity [12, 27] of 26.8 MFI and a fluorescence intensity [12, 28] of 28.5 MFI. It also gave a fluorescence intensity [12, 29] of 28 MFI, a fluorescence intensity [12, 30] of 33 MFI and a fluorescence intensity [12, 31] of 39.8 MFI. For the same binder, the fluorescence intensity [13, 24] was 18 MFI, the fluorescence intensity [13, 25] was 17.5 MFI and the fluorescence intensity [13, 26] was 18 MFI. It also gave a fluorescence intensity [13, 27] of 17.5 MFI, a fluorescence intensity [13, 28] of 18.5 MFI and a fluorescence intensity [13, 29] of 19 MFI. The fluorescence intensity [13, 30] was 22.5 MFI, the fluorescence intensity [13, 31] was 34.5 MFI and the fluorescence intensity [14, 24] was 22 MFI. The fluorescence intensity [14, 25] was 22.8 MFI, the fluorescence intensity [14, 26] was 21.5 MFI and the fluorescence intensity [14, 27] was 20.5 MFI. The fluorescence intensity [14, 28] was 22 MFI, the fluorescence intensity [14, 29] was 22.2 MFI and the fluorescence intensity [14, 30] was 25 MFI. The fluorescence intensity [14, 31] was 34 MFI, the fluorescence intensity [15, 24] was 16.8 MFI and the fluorescence intensity [15, 25] was 16.8 MFI. The fluorescence intensity [15, 26] was 17.8 MFI, the fluorescence intensity [15, 27] was 16 MFI and the fluorescence intensity [15, 28] was 17.5 MFI. It also gave a fluorescence intensity [15, 29] of 19 MFI, a fluorescence intensity [15, 30] of 19.2 MFI and a fluorescence intensity [15, 31] of 28 MFI. It also gave a fluorescence intensity [16, 24] of 31 MFI, a fluorescence intensity [16, 25] of 28.5 MFI and a fluorescence intensity [16, 26] of 28 MFI. For the same binder, the fluorescence intensity [16, 27] was 26 MFI, the fluorescence intensity [16, 28] was 28.2 MFI and the fluorescence intensity [16, 29] was 29 MFI. For the same binder, the fluorescence intensity [16, 30] was 34 MFI, the fluorescence intensity [16, 31] was 92.5 MFI and the fluorescence intensity [17, 24] was 24 MFI. For the same binder, the fluorescence intensity [17, 25] was 25 MFI, the fluorescence intensity [17, 26] was 26 MFI and the fluorescence intensity [17, 27] was 22 MFI. It also gave a fluorescence intensity [17, 28] of 23 MFI, a fluorescence intensity [17, 29] of 23 MFI and a fluorescence intensity [17, 30] of 28.5 MFI. For the same binder, the fluorescence intensity [17, 31] was 64.5 MFI, the fluorescence intensity [18, 24] was 24.8 MFI and the fluorescence intensity [18, 25] was 25 MFI. For the same binder, the fluorescence intensity [18, 26] was 24.8 MFI, the fluorescence intensity [18, 27] was 25 MFI and the fluorescence intensity [18, 28] was 24 MFI. It also gave a fluorescence intensity [18, 29] of 27.2 MFI, a fluorescence intensity [18, 30] of 29.5 MFI and a fluorescence intensity [18, 31] of 46 MFI. The fluorescence intensity [19, 24] was 17 MFI, the fluorescence intensity [19, 25] was 18.5 MFI and the fluorescence intensity [19, 26] was 19 MFI. It also gave a fluorescence intensity [19, 27] of 18.5 MFI, a fluorescence intensity [19, 28] of 21 MFI and a fluorescence intensity [19, 29] of 18.8 MFI. The fluorescence intensity [19, 30] was 21 MFI, the fluorescence intensity [19, 31] was 25.2 MFI and the fluorescence intensity [20, 24] was 24.5 MFI. For the same binder, the fluorescence intensity [20, 25] was 22 MFI, the fluorescence intensity [20, 26] was 22 MFI and the fluorescence intensity [20, 27] was 22.5 MFI. The fluorescence intensity [20, 28] was 22 MFI, the fluorescence intensity [20, 29] was 22.5 MFI and the fluorescence intensity [20, 30] was 25.5 MFI. It also gave a fluorescence intensity [20, 31] of 64 MFI, a fluorescence intensity [21, 24] of 22 MFI and a fluorescence intensity [21, 25] of 22.5 MFI. The fluorescence intensity [21, 26] was 22.5 MFI, the fluorescence intensity [21, 27] was 24 MFI and the fluorescence intensity [21, 28] was 23 MFI. It also gave a fluorescence intensity [21, 29] of 23 MFI, a fluorescence intensity [21, 30] of 25 MFI and a fluorescence intensity [21, 31] of 31 MFI. For the same binder, the fluorescence intensity [22, 24] was 18 MFI, the fluorescence intensity [22, 25] was 17.5 MFI and the fluorescence intensity [22, 26] was 19.5 MFI. The fluorescence intensity [22, 27] was 18.2 MFI, the fluorescence intensity [22, 28] was 19 MFI and the fluorescence intensity [22, 29] was 19.5 MFI. The fluorescence intensity [22, 30] was 20.2 MFI, the fluorescence intensity [22, 31] was 23.5 MFI and the fluorescence intensity [23, 24] was 23 MFI. It also gave a fluorescence intensity [23, 25] of 21 MFI, a fluorescence intensity [23, 26] of 20 MFI and a fluorescence intensity [23, 27] of 20.5 MFI.
